Our source for the binding values is publication PMC12283363.

Holding throughout (experiment): two-hybrid; Gal4 system (pGBKT7 / pGADT7, Takara); bait and prey plasmids co-transformed into yeast strain Y2HGold, 30 °C; selection on TDO (-His/-Leu/-Trp) or QDO (-Ade/-His/-Leu/-Trp) for five days; empty vectors as controls
Experiment [1] concerns the target T1, ZYP1b (Arabidopsis thaliana), full-length (Arabidopsis thaliana) (UniProt P61430).
T1 sequence: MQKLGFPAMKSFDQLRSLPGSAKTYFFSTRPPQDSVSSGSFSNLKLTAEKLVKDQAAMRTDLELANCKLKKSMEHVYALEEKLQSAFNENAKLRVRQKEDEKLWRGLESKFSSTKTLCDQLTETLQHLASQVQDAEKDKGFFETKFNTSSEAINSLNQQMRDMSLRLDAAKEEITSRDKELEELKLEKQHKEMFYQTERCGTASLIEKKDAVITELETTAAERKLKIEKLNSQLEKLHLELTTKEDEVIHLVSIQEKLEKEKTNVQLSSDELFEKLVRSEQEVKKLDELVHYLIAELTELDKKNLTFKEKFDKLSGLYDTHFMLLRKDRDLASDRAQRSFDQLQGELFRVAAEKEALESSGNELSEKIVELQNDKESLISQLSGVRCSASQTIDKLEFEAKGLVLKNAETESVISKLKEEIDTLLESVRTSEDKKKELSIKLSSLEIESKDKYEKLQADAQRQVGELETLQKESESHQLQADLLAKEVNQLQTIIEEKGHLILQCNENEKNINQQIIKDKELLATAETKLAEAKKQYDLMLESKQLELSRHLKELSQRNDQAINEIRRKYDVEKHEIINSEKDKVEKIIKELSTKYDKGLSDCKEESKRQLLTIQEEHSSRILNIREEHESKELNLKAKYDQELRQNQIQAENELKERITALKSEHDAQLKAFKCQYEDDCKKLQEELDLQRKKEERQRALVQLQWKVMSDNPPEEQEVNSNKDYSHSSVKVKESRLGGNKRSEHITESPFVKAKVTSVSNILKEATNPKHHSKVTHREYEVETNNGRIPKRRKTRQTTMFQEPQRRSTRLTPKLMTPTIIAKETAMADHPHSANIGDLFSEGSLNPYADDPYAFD

In experiment [2] the target is T2, HEI10 (Arabidopsis thaliana) (Arabidopsis thaliana) (UniProt F4HRI2).
T2 sequence: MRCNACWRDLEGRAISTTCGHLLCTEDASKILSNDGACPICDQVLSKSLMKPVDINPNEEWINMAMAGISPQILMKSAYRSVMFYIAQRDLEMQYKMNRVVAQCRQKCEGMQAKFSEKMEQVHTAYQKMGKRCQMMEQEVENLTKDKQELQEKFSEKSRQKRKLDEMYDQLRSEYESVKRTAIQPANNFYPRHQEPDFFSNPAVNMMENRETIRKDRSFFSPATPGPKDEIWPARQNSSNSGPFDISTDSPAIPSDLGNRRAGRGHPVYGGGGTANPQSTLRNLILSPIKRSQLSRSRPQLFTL

Experiment [3] addresses T3, MER3 (Arabidopsis thaliana) (Arabidopsis thaliana) (UniProt Q5D892).
T3 sequence: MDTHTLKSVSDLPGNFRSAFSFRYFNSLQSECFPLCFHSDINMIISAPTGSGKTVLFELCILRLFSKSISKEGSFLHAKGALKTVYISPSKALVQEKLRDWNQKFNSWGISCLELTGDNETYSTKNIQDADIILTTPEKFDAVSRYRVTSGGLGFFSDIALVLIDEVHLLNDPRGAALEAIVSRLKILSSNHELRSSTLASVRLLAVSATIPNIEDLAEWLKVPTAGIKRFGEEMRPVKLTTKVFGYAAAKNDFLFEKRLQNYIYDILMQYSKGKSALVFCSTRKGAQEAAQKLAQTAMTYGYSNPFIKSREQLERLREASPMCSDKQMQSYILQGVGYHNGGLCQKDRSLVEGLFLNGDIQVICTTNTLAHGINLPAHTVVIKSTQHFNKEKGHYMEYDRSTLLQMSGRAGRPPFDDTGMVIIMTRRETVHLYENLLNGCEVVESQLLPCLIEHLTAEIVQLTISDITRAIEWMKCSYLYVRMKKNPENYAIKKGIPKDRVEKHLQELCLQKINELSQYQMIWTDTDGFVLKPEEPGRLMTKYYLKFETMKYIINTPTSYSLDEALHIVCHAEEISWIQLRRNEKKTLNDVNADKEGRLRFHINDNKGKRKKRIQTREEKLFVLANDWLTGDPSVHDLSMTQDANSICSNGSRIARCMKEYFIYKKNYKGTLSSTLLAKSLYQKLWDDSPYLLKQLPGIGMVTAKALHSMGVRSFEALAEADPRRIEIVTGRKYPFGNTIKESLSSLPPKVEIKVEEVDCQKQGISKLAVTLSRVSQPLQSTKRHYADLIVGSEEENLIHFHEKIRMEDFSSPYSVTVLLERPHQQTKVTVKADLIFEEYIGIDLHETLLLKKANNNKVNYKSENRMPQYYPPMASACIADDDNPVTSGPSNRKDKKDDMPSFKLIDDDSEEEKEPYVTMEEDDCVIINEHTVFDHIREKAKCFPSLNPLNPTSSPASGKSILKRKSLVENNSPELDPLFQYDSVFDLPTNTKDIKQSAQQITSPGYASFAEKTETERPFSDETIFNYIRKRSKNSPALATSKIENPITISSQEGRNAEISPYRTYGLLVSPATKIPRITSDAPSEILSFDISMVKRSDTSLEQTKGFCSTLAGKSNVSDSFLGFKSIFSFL

The target in experiment [4] is T4, PRD3 (Arabidopsis thaliana) (Arabidopsis thaliana) (UniProt Q0WWX5).
T4 sequence: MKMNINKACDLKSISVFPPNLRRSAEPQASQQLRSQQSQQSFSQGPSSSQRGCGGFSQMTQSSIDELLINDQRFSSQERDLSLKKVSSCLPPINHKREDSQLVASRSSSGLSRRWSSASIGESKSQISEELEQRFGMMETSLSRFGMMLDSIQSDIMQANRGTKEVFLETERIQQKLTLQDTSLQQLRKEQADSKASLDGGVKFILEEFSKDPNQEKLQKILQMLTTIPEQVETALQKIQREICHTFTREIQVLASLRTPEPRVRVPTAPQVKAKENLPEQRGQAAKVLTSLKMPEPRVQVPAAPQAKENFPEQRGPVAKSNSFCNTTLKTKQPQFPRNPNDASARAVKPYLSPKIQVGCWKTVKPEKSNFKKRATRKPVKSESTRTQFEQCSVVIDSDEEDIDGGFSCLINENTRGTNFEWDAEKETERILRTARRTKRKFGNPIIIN

The target in experiment [5] is T5, PTD (Arabidopsis thaliana) (Arabidopsis thaliana) (UniProt F4IDW9).
T5 sequence: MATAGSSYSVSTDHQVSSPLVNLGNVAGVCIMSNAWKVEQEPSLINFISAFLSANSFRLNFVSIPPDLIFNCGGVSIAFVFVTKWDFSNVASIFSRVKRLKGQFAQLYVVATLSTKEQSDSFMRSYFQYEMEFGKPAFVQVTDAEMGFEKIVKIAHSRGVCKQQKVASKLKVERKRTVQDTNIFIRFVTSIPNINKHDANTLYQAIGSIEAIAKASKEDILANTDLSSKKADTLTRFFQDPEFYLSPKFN

In experiment [6] the target is T6, ZYP1a (Arabidopsis thaliana), full-length (Arabidopsis thaliana) (UniProt Q9LME2).
T6 sequence: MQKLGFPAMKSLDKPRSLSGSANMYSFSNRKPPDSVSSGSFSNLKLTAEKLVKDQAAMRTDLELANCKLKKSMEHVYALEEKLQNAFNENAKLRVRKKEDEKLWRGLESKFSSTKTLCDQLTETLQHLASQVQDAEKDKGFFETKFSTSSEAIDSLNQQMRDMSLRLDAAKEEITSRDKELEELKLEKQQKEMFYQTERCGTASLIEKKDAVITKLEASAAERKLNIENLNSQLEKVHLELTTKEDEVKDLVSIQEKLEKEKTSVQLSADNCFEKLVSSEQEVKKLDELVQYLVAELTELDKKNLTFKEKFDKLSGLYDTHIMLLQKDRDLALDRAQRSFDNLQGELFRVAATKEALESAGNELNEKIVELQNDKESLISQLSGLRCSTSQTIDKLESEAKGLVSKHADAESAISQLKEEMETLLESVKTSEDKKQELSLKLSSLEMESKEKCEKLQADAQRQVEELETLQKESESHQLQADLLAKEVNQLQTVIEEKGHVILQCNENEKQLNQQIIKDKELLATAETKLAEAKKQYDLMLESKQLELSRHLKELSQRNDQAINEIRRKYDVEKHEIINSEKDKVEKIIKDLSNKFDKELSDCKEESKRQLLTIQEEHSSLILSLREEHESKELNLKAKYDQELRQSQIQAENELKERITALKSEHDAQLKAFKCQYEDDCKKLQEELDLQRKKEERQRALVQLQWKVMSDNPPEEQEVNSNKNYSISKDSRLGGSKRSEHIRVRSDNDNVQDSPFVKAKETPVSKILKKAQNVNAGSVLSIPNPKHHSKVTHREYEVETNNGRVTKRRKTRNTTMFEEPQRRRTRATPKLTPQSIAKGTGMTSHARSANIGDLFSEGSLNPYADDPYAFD

The target in experiment [7] is T7, ZYP1b N-terminal region (amino acids 49-400) (Arabidopsis thaliana) (UniProt P61430).
T7 sequence: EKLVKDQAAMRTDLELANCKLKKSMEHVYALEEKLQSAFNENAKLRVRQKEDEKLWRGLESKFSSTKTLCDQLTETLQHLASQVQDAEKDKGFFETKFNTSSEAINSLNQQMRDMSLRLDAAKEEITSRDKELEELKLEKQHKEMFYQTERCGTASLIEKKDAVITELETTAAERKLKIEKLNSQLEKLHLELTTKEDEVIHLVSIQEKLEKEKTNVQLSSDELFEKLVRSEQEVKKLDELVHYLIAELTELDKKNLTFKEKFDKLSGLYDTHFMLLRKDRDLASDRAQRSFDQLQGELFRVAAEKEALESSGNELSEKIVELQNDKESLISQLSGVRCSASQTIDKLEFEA

Results are given in words; binding and its absence hold for the method and conditions named. For some assays here: A result given as binding can be weak or reduced; the word gives no strength.

For “SCEP3 C-terminal region (amino acids 734-803) (Arabidopsis thaliana) (domain or fragment)”, the binding entry in experiment [1] was “binds”.

For the substance “SCEP3 (Arabidopsis thaliana), full-length (from UniProt A0A1P8B5R8)”, the binding result is “no binding” in experiment [2]; “no binding” in experiment [3]; “no binding” in experiment [4]; “no binding” in experiment [5]; “binds” in experiment [6]; “binds” in experiment [1]. The binding entry in experiment [7] is on record as “binds”.
